These results are taken from paper doi:10.1101/2020.05.20.107664.

Changes are numbered by the printed parent chain. These are yes or no findings as the source states them, for the method shown. Binding seen in cells or lysates may run through a third protein. Binding can be weak; no strength is given. Sequences can lack the tags named with a protein.

Experiment [1] deals with T1, wild-type α-COP (α-COP-FLAG), stably expressed in MEFs (mouse) (UniProt Q8CIE6).
T1 sequence: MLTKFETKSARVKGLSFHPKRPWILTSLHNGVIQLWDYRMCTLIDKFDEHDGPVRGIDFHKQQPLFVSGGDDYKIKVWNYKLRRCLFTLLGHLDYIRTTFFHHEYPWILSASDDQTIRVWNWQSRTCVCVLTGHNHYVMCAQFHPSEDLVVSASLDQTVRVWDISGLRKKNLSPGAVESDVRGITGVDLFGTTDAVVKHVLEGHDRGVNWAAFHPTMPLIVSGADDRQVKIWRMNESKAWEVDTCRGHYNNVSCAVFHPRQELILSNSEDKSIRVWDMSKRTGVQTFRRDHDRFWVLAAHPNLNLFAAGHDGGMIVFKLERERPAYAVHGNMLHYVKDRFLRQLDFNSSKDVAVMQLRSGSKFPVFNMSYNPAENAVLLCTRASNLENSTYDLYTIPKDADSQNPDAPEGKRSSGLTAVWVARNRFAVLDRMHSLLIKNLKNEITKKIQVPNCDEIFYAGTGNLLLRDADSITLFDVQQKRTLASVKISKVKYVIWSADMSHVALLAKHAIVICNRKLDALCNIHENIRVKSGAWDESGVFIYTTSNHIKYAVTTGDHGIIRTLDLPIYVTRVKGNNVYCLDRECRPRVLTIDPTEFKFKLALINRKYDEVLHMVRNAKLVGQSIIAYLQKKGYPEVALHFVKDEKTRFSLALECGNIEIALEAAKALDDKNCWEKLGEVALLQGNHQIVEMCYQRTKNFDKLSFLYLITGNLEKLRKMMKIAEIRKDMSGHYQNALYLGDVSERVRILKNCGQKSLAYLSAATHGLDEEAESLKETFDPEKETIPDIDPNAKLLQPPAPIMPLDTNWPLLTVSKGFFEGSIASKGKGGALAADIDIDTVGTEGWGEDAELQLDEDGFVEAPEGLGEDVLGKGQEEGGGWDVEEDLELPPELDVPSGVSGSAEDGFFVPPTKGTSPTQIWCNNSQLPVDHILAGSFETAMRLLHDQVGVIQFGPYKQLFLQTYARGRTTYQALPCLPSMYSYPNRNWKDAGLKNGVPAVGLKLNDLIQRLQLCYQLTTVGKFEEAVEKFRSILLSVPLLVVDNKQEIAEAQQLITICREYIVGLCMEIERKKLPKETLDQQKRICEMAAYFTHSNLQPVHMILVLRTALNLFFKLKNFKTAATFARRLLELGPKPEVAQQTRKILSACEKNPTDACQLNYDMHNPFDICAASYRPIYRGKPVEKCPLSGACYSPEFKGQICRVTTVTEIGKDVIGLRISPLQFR
As to the kind of experiment: co-IP.

Experiment [2] addresses T2, α-COP variant K230N (α-COP-FLAG), stably expressed in MEFs (mouse) (UniProt Q8CIE6).
T2 sequence: T1 sequence with K230N
Put plainly: co-IP.

Consider “EGFP-mouse STING, stably expressed in MEFs”, for which the binding entry in experiment [1] and in experiment [2] was “binds” each time.
